Assay results published in the supplement of paper PMC4635364.
Structures can show the parent of a compound that is named as a salt. This is one part of the list. Repeats in this data set agree poorly, so a single value says little.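 ReNCell VM, a human fetal ventral-midbrain neural progenitor line, was differentiated without mitogens. Blinded raters scored images stained for doublecortin (early neurons) or tyrosine hydroxylase (dopaminergic neurons) against untreated wells (0 = no change). Scores were averaged across repeats and both raters, and compounds averaging 2 or more were selected as hits for retesting.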

Test system: ReNCell VM
Experiment: dopaminergic neuron differentiation score (TH+ cell fraction vs untreated, manual image score) (score (0 to 3)); higher = more TH+ dopaminergic neuron differentiation
Settings: library: Prestwick; 2 uM; 4 weeks; BDNF 10 ng/ml + GDNF 10 ng/ml

Dopaminergic neuron differentiation score, inactive:
COC(=O)Nc1nc2cc(Sc3ccccc3)ccc2[nH]1 [Fenbendazole] 0
CC(C)(C)NC[C@H](O)COc1cccc2c1CCCC2=O [(-) -Levobunolol hydrochloride] 0
C[C@]12CCC(=O)C=C1C=C[C@@H]1[C@@H]2CC[C@@]2(C)[C@H]1CC[C@@]21CCC(=O)O1 [Canrenone] 0
CCN[C@H]1C[C@H](C)S(=O)(=O)c2sc(S(N)(=O)=O)cc21 [Dorzolamide hydrochloride] 0
C#C[C@]1(O)CC[C@H]2[C@@H]3CCC4=CCCC[C@@H]4[C@H]3CC[C@@]21C [Lynestrenol] 0
CCCCCCCCCCCCCCCC[N+](C)(C)CCN(Cc1ccc(OC)cc1)c1ncccn1 [Thonzonium bromide] 0
N=C(N)NC(=N)NCCc1ccccc1 [Phenformin hydrochloride] 0
O=C1OCCN1/N=C/c1ccc([N+](=O)[O-])o1 [Furazolidone] 0

Structural class, the compounds so far with nitrogen in an aromatic ring (two)
Dopaminergic neuron differentiation score, inactive:
COC(=O)Nc1nc2cc(Sc3ccccc3)ccc2[nH]1 [Fenbendazole] 0
CCCCCCCCCCCCCCCC[N+](C)(C)CCN(Cc1ccc(OC)cc1)c1ncccn1 [Thonzonium bromide] 0

Same assay, conditions: library: Spectrum; 2 uM; 4 weeks; BDNF 10 ng/ml + GDNF 10 ng/ml

Dopaminergic neuron differentiation score, inactive:
CC(=O)Oc1cc(-c2coc3cc(OC(C)=O)c(OC(C)=O)c(OC(C)=O)c3c2=O)cc(OC(C)=O)c1OC(C)=O 0
COc1cc(O)c2c(c1)C(=O)c1cc(C)cc(O)c1C2=O 0
CCCCCCCCCCCCCCCCOP(=O)([O-])OCC[N+](C)(C)C 0
CCN(CC)CCNC(=O)c1cc(Br)c(N)cc1OC 0
O=C1[C@H](CC[C@H](O)c2ccc(F)cc2)[C@@H](c2ccc(O)cc2)N1c1ccc(F)cc1 0
COc1ccccc1OCC(O)COC(N)=O (stereo not drawn) 0
CC[C@@]1(O)C(=O)OCc2c1cc1n(c2=O)Cc2cc3c(CN(C)C)c(O)ccc3nc2-1 0
CC[C@H]1OC(=O)[C@H](C)[C@@H](O[C@H]2C[C@@](C)(OC)[C@@H](O)[C@H](C)O2)[C@H](C)[C@@H](O[C@@H]2O[C@H](C)C[C@H](N(C)C)[C@H]2O)[C@](C)(O)C[C@@H](C)C(=O)[C@H](C)[C@@H](O)[C@]1(C)O 0
COc1cc(C)c2c(c1C=O)Oc1c(c(C)c(O)c3c1C(O)OC3=O)OC2=O (stereo not drawn) 0
Nc1ccc(S(=O)(=O)NC(=O)c2ccccc2)cc1 1
Cc1ccc(C(=O)c2ccc(CC(=O)O)n2C)cc1 0
NC1=NCCN1CC(=O)O 0
NS(=O)(=O)c1cc2c(cc1C(F)(F)F)NCNS2(=O)=O 0
Nc1ccc(S(=O)(=O)Nc2ncccn2)cc1 0
Nc1ccc(C(=O)O)cc1 0

Same assay, conditions: library: Tocriscreen; 2 uM; 4 weeks; BDNF 10 ng/ml + GDNF 10 ng/ml

Dopaminergic neuron differentiation score, inactive:
CCn1c(=O)[nH]c2ccccc21 0
N#Cc1ccccc1OCC(O)CNCCNC(=O)Nc1ccccc1 (stereo not drawn) 0
CC1=C(/C=C/C(=C/C=C/C(C)=C/C(=O)O)c2ccc(C)cc2)C(C)(C)CCC1 0
CCCN(C/C=C/I)C1CCc2cccc(O)c2C1 (stereo not drawn) [8-Hydroxy-PIPAT oxalate] 0
Nc1[nH]nc2nc3ccccc3nc12 0
